Laboratory results taken from paper PMC12667467.
These are yes or no findings as the source states them, for the method shown. In cells and extracts the contact can be indirect. Some entries that bind do so weakly or less than the wild type.

By UniProt entry, the sequences of proteins in these tests, tags left out. Where a name states a change or a piece, a line headed by the entry shows the natural chain unless it says otherwise.
UniProt Q01094: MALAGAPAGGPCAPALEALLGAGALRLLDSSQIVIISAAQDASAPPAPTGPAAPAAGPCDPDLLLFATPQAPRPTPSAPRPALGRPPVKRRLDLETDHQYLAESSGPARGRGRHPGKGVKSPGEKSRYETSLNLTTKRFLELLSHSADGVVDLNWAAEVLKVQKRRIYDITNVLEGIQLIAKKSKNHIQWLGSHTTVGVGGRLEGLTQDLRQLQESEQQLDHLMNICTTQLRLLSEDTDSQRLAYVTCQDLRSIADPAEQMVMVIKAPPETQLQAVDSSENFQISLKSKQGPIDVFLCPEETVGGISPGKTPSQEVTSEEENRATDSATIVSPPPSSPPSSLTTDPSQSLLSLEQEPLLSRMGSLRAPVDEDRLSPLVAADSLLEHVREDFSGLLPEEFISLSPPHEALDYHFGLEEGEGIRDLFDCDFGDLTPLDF
UniProt Q7KZF4: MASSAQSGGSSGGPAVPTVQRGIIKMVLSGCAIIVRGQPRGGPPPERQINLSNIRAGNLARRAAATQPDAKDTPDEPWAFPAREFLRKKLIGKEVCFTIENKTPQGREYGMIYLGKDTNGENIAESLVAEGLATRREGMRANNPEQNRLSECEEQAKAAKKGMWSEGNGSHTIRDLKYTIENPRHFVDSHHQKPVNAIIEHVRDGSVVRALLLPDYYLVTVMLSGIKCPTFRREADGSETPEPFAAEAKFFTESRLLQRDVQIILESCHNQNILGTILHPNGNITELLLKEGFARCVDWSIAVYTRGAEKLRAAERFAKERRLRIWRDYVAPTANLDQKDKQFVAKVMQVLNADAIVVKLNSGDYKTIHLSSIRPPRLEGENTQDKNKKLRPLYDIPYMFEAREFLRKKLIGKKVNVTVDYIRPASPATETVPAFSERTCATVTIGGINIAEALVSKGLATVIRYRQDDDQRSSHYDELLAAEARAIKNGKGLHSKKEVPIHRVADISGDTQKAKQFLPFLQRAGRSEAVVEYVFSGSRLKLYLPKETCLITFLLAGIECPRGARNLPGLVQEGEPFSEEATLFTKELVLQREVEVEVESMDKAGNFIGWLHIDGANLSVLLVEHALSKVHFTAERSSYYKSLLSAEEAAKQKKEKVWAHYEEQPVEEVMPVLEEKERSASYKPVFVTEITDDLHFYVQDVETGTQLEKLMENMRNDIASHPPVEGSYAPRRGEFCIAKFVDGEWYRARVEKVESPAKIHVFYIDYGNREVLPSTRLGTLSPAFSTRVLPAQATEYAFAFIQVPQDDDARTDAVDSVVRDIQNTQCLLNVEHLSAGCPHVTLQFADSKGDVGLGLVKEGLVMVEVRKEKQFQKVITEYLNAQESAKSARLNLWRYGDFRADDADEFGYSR

Target: E2F transcription factor 1 (E2F1) (human (endogenous in MCF7 and T-47D)) (UniProt Q01094)
Assay: co-IP; whole-cell extracts of MCF7 and T-47D cells (IP lysis buffer: 50 mM Tris-HCl pH 8.1, 10 mM EDTA, 1% SDS); IP with anti-SND1 or anti-E2F1 antibodies overnight at 4 °C, Dynabeads, western blot; normal rabbit IgG as negative control; cells untreated or treated with 0.1 µM palbociclib for 24 h

- binding: binds
Substance: staphylococcal nuclease domain‐containing protein 1 (SND1) (from UniProt Q7KZF4 1-910)
